Data published in patent publication US20170304444A1 (Dana-Farber, published 2017).
No constants are given. Whether binding was seen depends on the method and setting. Some binding calls cover weakened binding; strength is not graded here.

The chains behind the UniProt entries cited, without tags or fusion partners. Residues count along the entry.
UniProt Q9Y5U5, residues 26-241: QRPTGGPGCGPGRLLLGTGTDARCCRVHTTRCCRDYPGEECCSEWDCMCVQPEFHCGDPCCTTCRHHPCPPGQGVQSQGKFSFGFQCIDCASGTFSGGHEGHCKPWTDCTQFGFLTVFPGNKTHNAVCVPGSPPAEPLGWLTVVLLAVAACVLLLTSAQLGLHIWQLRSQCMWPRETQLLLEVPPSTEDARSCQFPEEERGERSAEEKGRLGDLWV

Biological target: glucocorticoid-induced tumor necrosis factor receptor (GITR) (human) (UniProt Q9Y5U5)
Experiment: flow cytometry on GITR-expressing 293T cells, FITC anti-human Fc detection

B1: mAb #17-60 (antibody, V domains shown)
VH: EVQLVESGAEVKKPGASVKVSCKTSGYTFTDHYIHWVRQAPGQGLEWMGWINPSSGGTEYAQKFQGRVTMTRDTPISTAYMDLSGLRSDDTAVYYCARETIGGWNALDVWGQGTLVTVSS
VL: QPVLTQPPSASGTPGQRVTISCSGSSSNIGINTVNWYQQLPRTPPKLLIYTNNQRPSGVPDRFSGSKSDTSASLAISGLQSEDEADYYCAAWDDTLNGPLFGGGTKVTVLG
- binding: binds
